Data as given in PubChem BioAssay AID2685 (National Center for Advancing Translational Sciences (NCATS), 2010).
The list shows a part of the results. Shown are side measurements of this screen, not its main read-out; they come without a call. Compounds called inactive in the main read-out are mostly missing here. The note in brackets gives the kind of curve behind each potency; many fits are weak.

Assay: qHTS Assay for Lipid Storage Modulators in Drosophila S3 Cells;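 on cell number change: cells counted by Cell Tracker Red CMTPX staining in the red channel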
Conditions: BODIPY lipid droplet fluorescence, 18-24 h; for cell number change: measured here: cell count max response, cells fed with added oleic acid
How it was run: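 Laser-scanning cytometry quantifies lipid droplet accumulation (500–530 nm total intensity; droplet/cell object ratio) in oleic acid-fed (400 uM added) Drosophila S3 cells treated with a concentration series. 20 uM Triacsin C defined 100% inhibition.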

[1] = measured here: cell number channel AC50, cells fed with added oleic acid
[2] = measured here: lipid fluorescence (Fed channel) AC50, cells fed with added oleic acid

| SMILES | cell number change | AC50 [1] | AC50 [2] |
| --- | --- | --- | --- |
| COC(=O)c1c(NC(=O)Cc2ccccc2)sc2c1C(C(=O)OC)CC2 (stereo not given) | 34.5% | 0.0461 µM [rising, full curve, poor fit] | 0.411 µM [rising, full curve, poor fit] |
| O=C(O)c1cccc(N=C2NC(=O)C(CO)(CO)S2)c1 | 16.1% | – | 29.1 µM [rising, single point] |
| Cc1cc(C)c(COCc2cc(/C=N/O)c(C)cc2C)cc1/C=N/O | -24.5% | 2.91 µM [rising, single point] | 6.51 µM [rising, single point] |
| COc1ccc(OC)c(NC(=O)CSc2ccc3nnc(-c4cccnc4)n3n2)c1 | 35.2% | 2.06 µM [rising, full curve] | 3.26 µM [rising, single point] |
| Cc1ccc(NC(=O)c2cc(S(=O)(=O)NCCC3=CCCCC3)ccc2F)cc1F | -34.6% | 16.4 µM [falling, single point] | 16.4 µM [falling, single point] |
| Cc1c(C(c2ccc(C(=O)O)cc2)c2c(C)n(C)n(-c3ccccc3)c2=O)c(=O)n(-c2ccccc2)n1C | -6.76% | – | 0.116 µM [falling, full curve, poor fit] |
| Cc1ccc(NC(=O)C2C3CCC(O3)C2C(=O)O)c(Br)c1 (stereo not given) | 3.87% | – | 1.64 µM [falling, partial curve] |
| CCOC(=O)c1cnc(-c2ccccc2)nc1N(C)C | 41.8% | 0.461 µM [rising, partial curve] | – |
| CCOc1ccccc1-n1c(=S)sc2c(=O)n(-c3ccc(F)cc3)c(SCC(=O)O)nc21 | -35.2% | 3.66 µM [falling, full curve] | – |
| CC(C)CCNC(=O)c1ccc(Cl)c(NC(=O)Cc2ccccc2)c1 | – | – | 2.31 µM [rising, partial curve] |
| CCC1CCCCN1C(=O)CSc1nc2ncccc2[nH]1 (stereo not given) | – | – | 29.1 µM [rising, single point] |
| CCOC(=O)CC(=O)CSc1nc2nc(C)cc(C)n2n1 | 1.56% | – | 7.31 µM [rising, partial curve] |
| O=C1N/C(=N\c2ccccn2)SC1Cc1ccccc1Cl (stereo not given) | 30.3% | 29.1 µM [rising, single point] | – |
| Cc1ccc(N2CC(C(=O)Nc3ccc(S(=O)(=O)Nc4ncccn4)cc3)CC2=O)cc1C (stereo not given) | 9.83% | – | 6.51 µM [rising, partial curve, poor fit] |
| COC(=O)C1=C(N)OC2=C(C(=O)CC(C)(C)C2)C1c1cc2c(cc1Cl)OCO2 (stereo not given) | 4.85% | – | 32.6 µM [falling, single point] |
| O=C1CCCC/C1=N\Nc1ccc(OCc2ccccc2)cc1 | 1.31% | – | 23.1 µM [falling, partial curve, poor fit] |
| Cc1nn(-c2ccccc2)c2sc(-c3nnc(SCC(=O)O)o3)cc12 | 12.7% | – | 5.8 µM [rising, partial curve] |
| CC1=NN(C(=O)c2ccc(Cl)cc2)C(O)(c2ccccc2)C1 (stereo not given) | -21.5% | – | 6.51 µM [falling, partial curve] |
| C/C(=N\NC(=O)c1nn(C)cc1Br)c1cccc(NC(=O)C2CCCC2)c1 | -21.8% | – | – |
| CCOC(=O)N1CCN(Cc2nc3cc(NC(=O)C(C)C)ccc3n2C)CC1 | – | 4.61 µM [falling, single point] | – |

| SMILES | cell number change | AC50 [1] | AC50 [2] |
| --- | --- | --- | --- |
| Cc1ccc(NC(=O)CN(C)C(=O)c2cccc(S(=O)(=O)N3CCCC3)c2)cc1 | -17% | – | 29.1 µM [falling, single point] |
| COC(=O)c1ccccc1NC(=O)CN1CCC(C(=O)c2ccc3c(c2)OCCO3)CC1 | -12.9% | – | 0.82 µM [rising, partial curve] |
| CC(=O)c1ccc(OC(=O)CCc2ccccc2)cc1 | 7.02% | – | 29.1 µM [rising, single point] |
| OCC1OC(n2nnc3ccccc32)C(O)C(O)C1O (stereo not given) | -87% | 20.6 µM [falling, single point] | – |
| COCCCN(CC(=O)O)S(=O)(=O)c1ccccc1 | -18.5% | – | 0.82 µM [falling, full curve, poor fit] |
| O=C(c1cccn(Cc2ccc(Cl)c(Cl)c2)c1=O)N1CCOCC1 | -12.9% | – | 0.259 µM [falling, full curve, poor fit] |
| CC(NC(=O)c1ccc(S(=O)(=O)C(F)F)cc1)c1ccccc1 (stereo not given) | -27.8% | 0.13 µM [falling, full curve, poor fit] | 0.092 µM [falling, full curve, poor fit] |
| CC(C)(C)C(=O)Nc1cc(C(F)(F)F)ccc1-n1ccnc1 | -91.6% | 29.1 µM [falling, single point] | 29.1 µM [falling, single point] |
| CN1CCCN(C(=O)c2ccc(Cl)c(S(=O)(=O)N(C)c3ccccc3)c2)CC1 | 0.476% | – | 6.51 µM [falling, single point] |
| CC(=O)Nc1c(O)nc(SCC(=O)Nc2cccc(C)c2)[nH]c1=O | -52% | 4.11 µM [falling, partial curve] | – |
| COc1ccc(NC(=O)c2cccc(OS(=O)(=O)N(C)C)c2)cc1 | -5.41% | – | – |
| CCc1cc2c(SCC#N)ncnc2s1 | 53.2% | 14.6 µM [rising, partial curve] | – |
| Cc1cc([N+](=O)[O-])nn1CC(=O)N1c2ccccc2CC1C (stereo not given) | 12.6% | – | 29.1 µM [rising, partial curve] |
| O=C(NCCSCc1ccc(Cl)cc1)c1cccs1 | -47.2% | 29.1 µM [falling, single point] | – |
| CCCNC(=O)c1ccc(N2CCC3(CC2)CC(c2ccccc2)=NO3)c(NC(=O)Cc2ccc(F)cc2)c1 | 18.3% | – | – |
| Cc1nc2ccccc2c(=O)n1NC(=O)CCC(=O)O | -39.2% | – | 35.5 µM [rising, partial curve, poor fit] |
| CC1CCc2sc(NC(=O)c3ccc(N4C(=O)CCC4=O)cc3)c(C(N)=O)c2C1 (stereo not given) | 14.2% | 0.146 µM [rising, full curve, poor fit] | – |
| CC(C)(C)C(=O)Nc1ccccc1C(=O)NCc1ccco1 | -8.58% | – | 6.51 µM [rising, single point] |
| CCn1c(=O)c(CCC(=O)NCC2CCCO2)c(C)c2c(C)nn(-c3ccccc3)c21 (stereo not given) | -39.4% | 29.1 µM [falling, single point] | 2.91 µM [falling, full curve] |
| O=C(c1cc(Br)ccc1Cl)N1CCN(c2ccc(N3CCOCC3)nn2)CC1 | 22.7% | 0.731 µM [falling, full curve] | 0.259 µM [falling, full curve, poor fit] |

An excerpt from further up:

| SMILES | cell number change | AC50 [1] | AC50 [2] |
| --- | --- | --- | --- |
| Cc1ccc(NC(=O)c2cc(S(=O)(=O)NCCC3=CCCCC3)ccc2F)cc1F | -34.6% | 16.4 µM [falling, single point] | 16.4 µM [falling, single point] |
| Cc1c(C(c2ccc(C(=O)O)cc2)c2c(C)n(C)n(-c3ccccc3)c2=O)c(=O)n(-c2ccccc2)n1C | -6.76% | – | 0.116 µM [falling, full curve, poor fit] |
| Cc1ccc(NC(=O)C2C3CCC(O3)C2C(=O)O)c(Br)c1 (stereo not given) | 3.87% | – | 1.64 µM [falling, partial curve] |
| CCOC(=O)c1cnc(-c2ccccc2)nc1N(C)C | 41.8% | 0.461 µM [rising, partial curve] | – |
| CCOc1ccccc1-n1c(=S)sc2c(=O)n(-c3ccc(F)cc3)c(SCC(=O)O)nc21 | -35.2% | 3.66 µM [falling, full curve] | – |
| CC(C)CCNC(=O)c1ccc(Cl)c(NC(=O)Cc2ccccc2)c1 | – | – | 2.31 µM [rising, partial curve] |
| CCC1CCCCN1C(=O)CSc1nc2ncccc2[nH]1 (stereo not given) | – | – | 29.1 µM [rising, single point] |
| CCOC(=O)CC(=O)CSc1nc2nc(C)cc(C)n2n1 | 1.56% | – | 7.31 µM [rising, partial curve] |
| O=C1N/C(=N\c2ccccn2)SC1Cc1ccccc1Cl (stereo not given) | 30.3% | 29.1 µM [rising, single point] | – |
| Cc1ccc(N2CC(C(=O)Nc3ccc(S(=O)(=O)Nc4ncccn4)cc3)CC2=O)cc1C (stereo not given) | 9.83% | – | 6.51 µM [rising, partial curve, poor fit] |
| COC(=O)C1=C(N)OC2=C(C(=O)CC(C)(C)C2)C1c1cc2c(cc1Cl)OCO2 (stereo not given) | 4.85% | – | 32.6 µM [falling, single point] |
| O=C1CCCC/C1=N\Nc1ccc(OCc2ccccc2)cc1 | 1.31% | – | 23.1 µM [falling, partial curve, poor fit] |
| Cc1nn(-c2ccccc2)c2sc(-c3nnc(SCC(=O)O)o3)cc12 | 12.7% | – | 5.8 µM [rising, partial curve] |
| CC1=NN(C(=O)c2ccc(Cl)cc2)C(O)(c2ccccc2)C1 (stereo not given) | -21.5% | – | 6.51 µM [falling, partial curve] |
| C/C(=N\NC(=O)c1nn(C)cc1Br)c1cccc(NC(=O)C2CCCC2)c1 | -21.8% | – | – |
| CCOC(=O)N1CCN(Cc2nc3cc(NC(=O)C(C)C)ccc3n2C)CC1 | – | 4.61 µM [falling, single point] | – |
| Cc1ccc(NC(=O)CN(C)C(=O)c2cccc(S(=O)(=O)N3CCCC3)c2)cc1 | -17% | – | 29.1 µM [falling, single point] |

The results go on.

| SMILES | cell number change | AC50 [1] | AC50 [2] |
| --- | --- | --- | --- |
| COC(=O)c1cn(NC(=O)c2ccc([N+](=O)[O-])cc2Cl)c(=O)c2ccccc12 | 34.7% | – | 29.1 µM [rising, single point] |
| CCC(=O)N1CCc2cc(S(=O)(=O)NCCC(=O)N3CCN(c4cccc(OC)c4)CC3)ccc21 | – | – | 23.1 µM [rising, partial curve] |
| Cc1ccc(S(=O)(=O)NC(C)C(=O)NC2CC2)cc1 (stereo not given) | 3.97% | – | 6.51 µM [rising, partial curve] |
| COC(=O)c1cc2n(n1)CCN(Cc1ccccc1F)C2=O | -25.6% | – | – |
| CCOC(=O)c1sc(NC(=O)CSc2nnnn2-c2ccc(C)cc2)c(C(=O)OCC)c1C | 102% | 8.2 µM [rising, partial curve, poor fit] | 1.46 µM [rising, partial curve] |
| Cc1cc(=O)oc2cc(NC(=O)c3c(Cl)cnn3C)ccc12 | -9.01% | – | – |
| Cc1cccc(N2C(=O)N3[C@H](c4ccc(Cl)cc4)[C@@H]4C(=O)N(C5CCCCC5)C(=O)[C@@H]4[C@]3(Cc3ccc(Cl)cc3)C2=O)c1 | 86.8% | 29.1 µM [rising, single point] | 2.06 µM [falling, full curve, poor fit] |
| OC1CCCC1 | -20.2% | 0.164 µM [falling, full curve, poor fit] | – |
| CC(C)N(C(=O)c1ccc(C(=O)Nc2ccc([N+](=O)[O-])cc2)cc1)C(C)C | -18% | – | 25.1 µM [falling, partial curve] |
| O=C(NCc1ccc(F)cc1)c1cc(-c2cccs2)on1 | 29.9% | – | – |
| O=C(CCN1CCN(C(c2ccccc2)c2ccccc2)CC1)N/N=C/c1ccc(O)cc1O | -19.1% | – | 32.6 µM [falling, single point] |
| CC(=O)N1CCc2cc(S(=O)(=O)NCC(=O)NCc3ccc(Cl)cc3)ccc21 | 26.7% | – | 29.1 µM [rising, single point] |
| CCOC(=O)C1=C(CSc2nccn2C)NC(=O)NC1c1ccc2c(c1)OCO2 (stereo not given) | 15.7% | – | 0.731 µM [rising, single point] |
| COc1cc2c(cc1OC)CN(C(=O)/C=C/c1ccccc1[N+](=O)[O-])CC2 | -9.27% | – | 0.58 µM [rising, full curve] |
| CCOC(=O)C12CNC(=O)C(C(=O)OCC)(CNC1=O)C2 | 24.2% | – | – |
| COc1cc(NS(=O)(=O)c2ccc(C)cc2)ccc1-n1cnnn1 | -27.1% | – | – |
| Cc1ccc(-c2ccnc3[nH]n(-c4ccccc4)c(=O)c23)cc1 | – | – | 0.231 µM [falling, full curve, poor fit] |
| CCOc1ccc(/C=c2\sc3nc(-c4ccco4)nn3c2=O)cc1OCC | – | – | 0.58 µM [falling, single point] |
| CC(/C=C/C=C/c1ccccc1)=N/NC(=O)CNc1ccc(C)cc1 | 104% | – | – |
| Cc1cc(NS(=O)(=O)c2ccc(NC(=O)c3cc(-c4ccccc4Cl)nc4ccccc34)cc2)no1 | 4.32% | – | 18.4 µM [rising, single point] |
